Our source for the binding values is article doi:10.1101/2021.10.17.464477.

Chains of the proteins cited; added tags and fusions are not shown.
UniProt Q9SV12: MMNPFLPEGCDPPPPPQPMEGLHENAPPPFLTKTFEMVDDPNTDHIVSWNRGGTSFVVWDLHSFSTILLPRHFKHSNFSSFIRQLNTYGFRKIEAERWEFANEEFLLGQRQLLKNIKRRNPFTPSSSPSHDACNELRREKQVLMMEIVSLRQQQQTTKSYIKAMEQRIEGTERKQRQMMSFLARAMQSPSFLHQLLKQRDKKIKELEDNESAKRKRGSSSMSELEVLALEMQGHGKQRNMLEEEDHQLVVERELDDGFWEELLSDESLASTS

No constants are given. Whether binding was seen depends on the method and setting. Binding seen in cells or lysates may run through a third protein. Some results given as binding are weak or reduced against the parent protein; the word gives no strength. Sequences can lack the tags named with a protein.

In the experiment the target is Heat shock factor HSFA7a, HA-tagged (Arabidopsis thaliana) (UniProt Q9SV12). Kind of experiment: co-IP.

B1: HEAT SHOCK FACTOR BINDING PROTEIN (HSBP), Myc-tagged (protein, UniProt Q8GW48 1-86)
chain: MDGHDSEDTKQSTADMTAFVQNLLQQMQTRFQTMSDSIITKIDDMGGRINELEQSINDLRAEMGVEGTPPPASKSGDEPKTPASSS
Consider B1, for which the binding entry is reported as “binds”.
